{"source": "PubChem BioAssay AID686937 – Drosophila RNAi Screening Center, 2013", "aim": "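Genes whose loss weakens secretory pathway function in fly cells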 (primary screen)", "cells": "Drosophila S2 cells expressing secreted horseradish peroxidase", "reagent": "long dsRNA against Drosophila genes", "time to read-out": "about 5.5 days (5 days dsRNA, then 12 h reporter induction)", "challenge": "reporter expression induced after 5 days of dsRNA, read 12 h later; inducer not stated", "measurement": "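After 5 days of dsRNA and 12 h of reporter induction, medium peroxidase read by chemiluminescence and scored as per-plate z-score; higher values mean more reporter released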", "direction": "z-score: higher = more reporter secreted into medium", "note": "The screen tested about 23,000 reagents; below is an unselected part of those with a known target gene and a result. 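Reduced-secretion tags in replicate 1 do not always agree with the z-scores; no criterion for assigning the tags was given.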 A plus sign joins genes that one reagent is predicted to hit. Not all columns of the deposit are shown. The record does not give: the amount of reagent."}
{"Target gene": "CG3356", "dsRNA": "DRSC04358", "z-score, replicate 1": 0.53}
{"Target gene": "CG7791", "dsRNA": "DRSC04891", "z-score, replicate 1": 0.19}
{"Target gene": "CG6923", "dsRNA": "DRSC16136", "z-score, replicate 1": -0.36}
{"Target gene": "Mccc1", "dsRNA": "DRSC15417", "z-score, replicate 1": 0.13}
{"Target gene": "Ndf", "dsRNA": "DRSC02775", "z-score, replicate 1": 0.37}
{"Target gene": "CG32588", "dsRNA": "DRSC22285", "z-score, replicate 1": -0.68}
{"Target gene": "CG1773", "dsRNA": "DRSC06688", "z-score, replicate 1": 0.3}
{"Target gene": "CG30447", "dsRNA": "DRSC05820", "z-score, replicate 1": 0.39}
{"Target gene": "Fcp1", "dsRNA": "DRSC04121", "z-score, replicate 1": -0.06}
{"Target gene": "Npc2f", "dsRNA": "DRSC15980", "z-score, replicate 1": 0.35}
{"Target gene": "DZIP1", "dsRNA": "DRSC14620", "z-score, replicate 1": 0.01}
{"Target gene": "CG40583 (retired record)", "dsRNA": "DRSC20938", "z-score, replicate 1": 0.33}
{"Target gene": "c11.1", "dsRNA": "DRSC18749", "z-score, replicate 1": 0.43}
{"Target gene": "Mst98Ca", "dsRNA": "DRSC16749", "z-score, replicate 1": 0.01}
{"Target gene": "Epp", "dsRNA": "DRSC14607", "z-score, replicate 1": 0.24}
{"Target gene": "CG30495", "dsRNA": "DRSC06703", "z-score, replicate 1": 0.3}
{"Target gene": "CG14712", "dsRNA": "DRSC14935", "z-score, replicate 1": -2.34, "phenotype, replicate 1": "reduced secretion"}
{"Target gene": "scw", "dsRNA": "DRSC01711", "z-score, replicate 1": -0.14}
{"Target gene": "scw", "dsRNA": "DRSC21252", "z-score, replicate 1": 0.55}
{"Target gene": "CG14778", "dsRNA": "DRSC17953", "z-score, replicate 1": 0.09}
{"Target gene": "Hinfp", "dsRNA": "DRSC18484", "z-score, replicate 1": 0.34}
{"Target gene": "Gbeta76C", "dsRNA": "DRSC11174", "z-score, replicate 1": 0.13}
{"Target gene": "Hcs", "dsRNA": "DRSC12070", "z-score, replicate 1": 0.24}
{"Target gene": "Hcs", "dsRNA": "DRSC12256", "z-score, replicate 1": 0.17}
{"Target gene": "tna", "dsRNA": "DRSC09053", "z-score, replicate 1": -0.46}
{"Target gene": "tna", "dsRNA": "DRSC10937", "z-score, replicate 1": 0.16}
{"Target gene": "Kdm2", "dsRNA": "DRSC14286", "z-score, replicate 1": 0.22}
{"Target gene": "bma", "dsRNA": "DRSC09896", "z-score, replicate 1": 0.12}
{"Target gene": "bma", "dsRNA": "DRSC10164", "z-score, replicate 1": 0.48}
{"Target gene": "sals", "dsRNA": "DRSC14925", "z-score, replicate 1": 0.28}
{"Target gene": "sals", "dsRNA": "DRSC16113", "z-score, replicate 1": 0.1}
{"Target gene": "CG31245", "dsRNA": "DRSC15498", "z-score, replicate 1": 0.4}
{"Target gene": "Ero1L", "dsRNA": "DRSC08660", "z-score, replicate 1": -0.12}
{"Target gene": "HSPBAP1", "dsRNA": "DRSC14567", "z-score, replicate 1": 0.44}
{"Target gene": "Su(fu)", "dsRNA": "DRSC16871", "z-score, replicate 1": 0.31}
{"Target gene": "Cyp28d1", "dsRNA": "DRSC03298", "z-score, replicate 1": 0.12}
{"Target gene": "Cyp28d1", "dsRNA": "DRSC21331", "z-score, replicate 1": 0.12}
{"Target gene": "CG14780", "dsRNA": "DRSC18566", "z-score, replicate 1": 0.18}
{"Target gene": "CG15283", "dsRNA": "DRSC01980", "z-score, replicate 1": -0.11}
{"Target gene": "CG14115", "dsRNA": "DRSC10118", "z-score, replicate 1": -0.15}
{"Target gene": "tea", "dsRNA": "DRSC06110", "z-score, replicate 1": 0.2}
{"Target gene": "tea", "dsRNA": "DRSC06236", "z-score, replicate 1": 0.03}
{"Target gene": "ssh", "dsRNA": "DRSC16730", "z-score, replicate 1": 0.51}
{"Target gene": "IFT20 + CG10395", "dsRNA": "DRSC22660", "z-score, replicate 1": 1.65}
{"Target gene": "fu", "dsRNA": "DRSC20333", "z-score, replicate 1": -1.88}
{"Target gene": "PIG-Wa", "dsRNA": "DRSC00728", "z-score, replicate 1": 0.32}
{"Target gene": "Eps-15", "dsRNA": "DRSC04288", "z-score, replicate 1": 0.28}
{"Target gene": "CG9864", "dsRNA": "DRSC07346", "z-score, replicate 1": 0.34}
{"Target gene": "CG16700", "dsRNA": "DRSC19755", "z-score, replicate 1": 0.22}
{"Target gene": "CG9705", "dsRNA": "DRSC11094", "z-score, replicate 1": 0.39}
{"Target gene": "IFT57", "dsRNA": "DRSC00720", "z-score, replicate 1": -0.09}

Reformatted: results already given
{"Target gene":"Mst98Ca","dsRNA":"DRSC16749","z-score, replicate 1":0.01}
{"Target gene":"Epp","dsRNA":"DRSC14607","z-score, replicate 1":0.24}
{"Target gene":"CG30495","dsRNA":"DRSC06703","z-score, replicate 1":0.3}
